For three compounds, Inhibition results are on record in ChEMBL document CHEMBL4513154, “CO-ADD screening of Jain University (India) compounds”.

SMILES strings stand for the structures. Some of the results follow. Potency and affinity values are given separately.

The test system of this assay is Acinetobacter baumannii. The conditions noted are these: Concentration 32 ug.mL-1; ASSAY_TEST Inhibition of Bacterial Growth; detection method Absorption (OD600); MEDIA CAMHB; plate type 384well; NBS; CORNING #3640; time 18 hr.
Take `Clc1ccc2c(c1)nc(-c1cscn1)n2Cc1ccc(Cl)nc1`: the Inhibition was -10.91%.

As for `Clc1ccc(Cn2c(-c3cscn3)nc3ccccc32)cn1`, the Inhibition turned out to be 2.13%.

For `Clc1ccc(Cn2c(-c3cscn3)nc3c(Cl)cccc32)cn1`, the Inhibition was -9.47%.

For orientation: Inhibition means the change of the read-out against control, counted positive when it falls.
